Laboratory results taken from PubChem BioAssay AID743255 (National Center for Advancing Translational Sciences (NCATS), 2014).
The whole screen tested about 390,000 compounds, of which about 910 (0.23%) were called active. The inconclusive results got no clear call from the source; some entries with a clear call stand among them for comparison. The call rests on the fitted dose curve; in most records, active means well fitted inhibition curve with a large enough effect; inconclusive means small, poorly fitted or top-dose-only effect; inactive means no such curve, though single readings can be large or run the other way. Where the call is inconclusive, the potency comes from a doubtful curve fit.
Further: nearly all actives have a fitted effect of over 60% in size.
On the % scale 0 is the no-effect control and ±100 the full control effect; potency means the concentration at half of the fitted maximal effect.

Chains of the proteins cited; added tags and fusions are not shown. Lines headed by an entry give the natural chain unless they say otherwise; changes in a name come on top.
UniProt O94782: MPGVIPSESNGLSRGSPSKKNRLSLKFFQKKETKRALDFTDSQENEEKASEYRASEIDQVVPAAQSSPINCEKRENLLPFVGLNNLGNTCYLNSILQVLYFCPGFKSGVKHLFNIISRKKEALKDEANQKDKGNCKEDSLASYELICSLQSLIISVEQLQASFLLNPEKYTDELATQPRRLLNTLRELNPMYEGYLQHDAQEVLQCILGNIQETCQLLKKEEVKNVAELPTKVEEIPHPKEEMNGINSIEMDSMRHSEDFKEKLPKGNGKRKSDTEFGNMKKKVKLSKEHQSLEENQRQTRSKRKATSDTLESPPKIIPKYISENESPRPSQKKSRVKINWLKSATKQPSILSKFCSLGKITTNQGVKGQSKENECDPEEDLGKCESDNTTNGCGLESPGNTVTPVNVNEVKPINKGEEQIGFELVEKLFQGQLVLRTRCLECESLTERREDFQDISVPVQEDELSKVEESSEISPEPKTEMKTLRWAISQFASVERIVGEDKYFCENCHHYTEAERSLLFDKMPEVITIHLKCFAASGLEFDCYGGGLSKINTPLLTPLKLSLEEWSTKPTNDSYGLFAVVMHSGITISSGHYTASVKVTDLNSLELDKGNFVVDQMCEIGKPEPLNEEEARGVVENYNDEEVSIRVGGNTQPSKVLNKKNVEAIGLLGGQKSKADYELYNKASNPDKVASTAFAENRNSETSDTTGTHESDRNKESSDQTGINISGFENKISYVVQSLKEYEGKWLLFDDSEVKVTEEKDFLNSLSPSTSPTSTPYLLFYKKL

These compounds were tested against Ubiquitin carboxyl-terminal hydrolase 1 (Homo sapiens) (UniProt O94782) (assay: Inhibitors of USP1/UAF1: Primary Screen). Conditions: recombinant USP1/UAF1, Ub-Rhodamine cleavage fluorescence; activity change, negative = inhibition: at 57.1 µM (top of the series).
Summary of the method: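 1 nM enzyme complex + cpd, 15 min RT; start with Ub-Rho 150nM final; kinetic fluorescence ex 480/em 540, 6 reads q60 s. Buffer 50mM HEPES pH 7.8, 0.5mM EDTA, 0.1 mg/ml BSA, 1mM TCEP, 0.01% Tween-20.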
With CCC(CO)Oc1cc(NCc2cccc(OC)c2)c2ncn(C(C)C)c2c1 (stereo unspecified) the Potency was inconclusive: 56.2 µM [inhibitor, partial curve, poor fit].
CCc1nc(N2CCN(C(C)=O)CC2)c2c3c(sc2n1)CC(C(C)(C)C)CC3 (stereo unspecified) was tested, and the Potency was “inactive”.
With O=C(Cc1ccc([N+](=O)[O-])cc1)Nc1cc(C(F)(F)F)cc(C(F)(F)F)c1 the Potency was inconclusive: 39.8 µM [inhibitor, partial curve, poor fit].
In the case of COc1ccc(CCn2c(O)cc3nn(-c4nc5ccccc5s4)c(=O)c-3c2C)cc1, the Potency is reported as inconclusive: 25.1 µM [inhibitor, partial curve].
For COCCOCCn1c(/C=C/c2ccccc2)nc2ccccc21, the activity change, negative = inhibition was inconclusive: -15.8% [inhibitor].
Cc1nn(C)c2c1c(C(F)(F)F)cc(=O)n2C(C)C(=O)NCCc1ccccc1 (stereo unspecified) was tested, and the Potency was “inactive”.
For Brc1ccc(C2=CC(c3cccs3)n3ncnc3N2)cc1 (stereo unspecified), the Potency was inconclusive: 31.6 µM [inhibitor, partial curve, poor fit].
In the case of CCOC(=O)C1=C(C)NC(=O)NC1c1cn(-c2ccccc2)nc1-c1ccc(OC(C)C)cc1 (stereo unspecified), the Potency is reported as inconclusive: 0.224 µM [inhibitor, full curve].
O=C(/C=C/c1ccc(N2CCC(c3ccccc3)=N2)cc1)c1ccccc1 was tested, and the Potency was “inactive”.
In the case of COc1ccc(N(CC(=O)Nc2cccc(C(C)=O)c2)S(=O)(=O)c2ccccc2)c(OC)c1, the Potency is reported as “inactive”.
With Cc1cc(OCCCn2c(CCNC(=O)C3CCCCC3)nc3ccccc32)ccc1Cl the Potency was inconclusive: 17.8 µM [inhibitor, partial curve].
CCn1c(SCc2nc3scc(-c4ccccc4)c3c(=O)[nH]2)nnc1-c1cccs1 was tested, and the Potency was inconclusive: 44.7 µM [inhibitor, partial curve].
In the case of CCCNC(=O)c1ccc(-c2nc(CS(=O)(=O)c3ccc(C)cc3)c(C)o2)cc1, the Potency is reported as inconclusive: 44.7 µM [inhibitor, partial curve, poor fit].
COc1ccc(OC)c(NC(=O)CSc2ncc3c(n2)-c2ccccc2N(C)S3(=O)=O)c1 was tested, and the Potency was inconclusive: 8.91 µM [inhibitor, partial curve, poor fit].
In the case of Cc1ccc(-c2csc(NC(=O)CCNC(=O)c3ccccc3Cl)n2)cc1, the Potency is reported as “inactive”.
Nc1ncnc2c1ncn2[C@@H]1O[C@H](CNS(=O)(=O)c2ccc3c(c2)CCN(C(=O)C(F)(F)F)C3)[C@@H](O)[C@H]1O was tested, and the Potency was inconclusive: 11.2 µM [inhibitor, partial curve, poor fit].
CCOc1ccc(S(=O)(=O)c2cn(Cc3ccccc3C)c3ccc(OC)cc3c2=O)cc1 was tested, and the Potency was “inactive”.
For CN(C)/C=N/c1sc2c(c1C#N)CCCCC2, the Potency was “inactive”.
In the case of CC1CCN(C(=O)c2[nH]cnc2C(=O)N(C)Cc2ccccc2)CC1, the Potency is reported as inconclusive: 2.82 µM [inhibitor, full curve, poor fit].
For CCCCCCn1c(CN2CCCCC2C)nc2c1c(=O)n(C)c(=O)n2C (stereo unspecified), the Potency was inconclusive: 31.6 µM [inhibitor, single point].
With CCOCCCNC(=O)c1cc2c(-c3ccc(Cl)cc3)nn(C)c2s1 the Potency was inconclusive: 0.794 µM [inhibitor, full curve, poor fit].
For O=C(C1CCCN1S(=O)(=O)c1cccc2cccnc12)N1CCc2ccccc2C1 (stereo unspecified), the Potency was inconclusive: 0.794 µM [inhibitor, full curve, poor fit].
With COc1ccc(C(=O)NC(=S)NC(C)c2ccccc2)cc1 (stereo unspecified) the Potency was inconclusive: 44.7 µM [inhibitor, partial curve, poor fit].
With Cc1ccc(C)c(NC(=O)COC(=O)c2c(C)nn(-c3ccccc3)c2C)c1 the Potency was “inactive”.
With O=C(C1=C[C@@H](c2ccc(Br)cc2)C[C@@H](OCc2ccc(CO)cc2)O1)N1CCN(Cc2ccccc2)CC1 the Potency was inconclusive: 56.2 µM [inhibitor, single point].
For O=C(N/N=C/c1ccccn1)c1cccc([N+](=O)[O-])c1, the Potency was “inactive”.
COc1ccc(/C(N)=N/OC(=O)C2CCCCC2)cc1 was tested, and the Potency was inconclusive: 14.1 µM [inhibitor, partial curve, poor fit].
In the case of COCCN(C(=O)c1ccco1)c1nc(-c2ccc(OC)cc2)cs1, the Potency is reported as inconclusive: 44.7 µM [inhibitor, partial curve].
Cc1cccc(-c2nnn3c2nc(NCCc2ccc(S(N)(=O)=O)cc2)c2ccccc23)c1 was tested, and the Potency was inconclusive: 7.08 µM [inhibitor, full curve, poor fit].
With CCCCCCn1c(=O)n2n(c1=O)[C@@H]1CN(S(=O)(=O)c3ccc(C)cc3)C[C@]1(O)[C@@H](OC(=O)NC1CCCC1)C2 the Potency was inconclusive: 79.4 µM [inhibitor, partial curve, poor fit].
With O=C(NCc1ccncc1)C12CC3CC(CC(C3)C1)C2 the Potency was “inactive”.
For COc1ccc(-c2cn3ccccc3n2)cc1[N+](=O)[O-], the Potency was “inactive”.
CCN1CCc2nc3sc(C(=O)c4ccccc4)c(N)c3cc2C1 was tested, and the Potency was “inactive”.
CCN(c1ccccc1)S(=O)(=O)c1nnc(NC(=O)C(C)(C)C)s1 was tested, and the Potency was “inactive”.
With Cc1cc(N)c2cc(NC(=O)/C=C/c3ccccc3Cl)ccc2n1 the Potency was “inactive”.
With COC(=O)C1=C(O)/C(=C\c2ccc(OCC(=O)Nc3ccccc3OC)cc2)N=C1C the Potency was inconclusive: 0.112 µM [inhibitor, full curve, poor fit].
Cc1ccc(CNC(=O)C2CCCCN2S(=O)(=O)c2ccc(F)cc2)cc1 (stereo unspecified) was tested, and the Potency was inconclusive: 39.8 µM [inhibitor, partial curve].
In the case of Cc1ccc(Cl)cc1-n1ncc2c(NCc3ccc(F)cc3)ncnc21, the Potency is reported as inconclusive: 6.31 µM [inhibitor, single point].
O=C1C(Cl)=C(NCCc2ccccc2)C(=O)c2ccccc21 was tested, and the Potency was inconclusive: 31.6 µM [inhibitor, partial curve].
With COc1ccc(-c2cc3ccc(O)c(CN4CCCC(C)C4)c3oc2=O)cc1 (stereo unspecified) the Potency was inconclusive: 0.708 µM [inhibitor, full curve].
In the case of O=C(O)c1c(-c2ccccc2)oc2ccc(OCc3ccc(Cl)c(Cl)c3)cc12, the Potency is reported as inconclusive: 44.7 µM [inhibitor, partial curve, poor fit].
